Reference: PubChem BioAssay AID1224826 (NIAID, 2016)
Screen: 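Genes that change LPS-induced Tnf promoter activity in mouse macrophages when knocked down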 (primary screen). System: RAW264.7 G9 macrophages from mouse bearing reporters for p65 (GFP) and the Tnf promoter (mCherry). Reagent: siRNA pool against mouse genes, 100 nM. Duration: 16 h of LPS stimulation, after 2 days of siRNA transfection. Challenge: bacterial lipopolysaccharide (Salmonella minnesota R595), 10 ng/ml. Read-out: 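Imaged Tnf reporter mCherry in nuclei, minus background, normalised per plate to the median and expressed as robust z-scores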. Scale: Tnf reporter robust z-score: higher = stronger Tnf promoter reporter signal after LPS. Hit rule: 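Called active when robust z-score is at most -1.3, matching the median of the Tlr4 knock-down control, or over 3; control wells and wells with under 50 cells never active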. Calls: active = Tnf reporter clearly lowered or raised; inactive = no clear change in Tnf reporter.
Shown is a random part of about 17,000 reagents. Over the whole deposit, about 1,110 (6.6%) got an active call. 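Active means lowered or raised reporter signal; replicate intensities are raw and not normalised per plate.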 Further read-outs or replicates are left out here. Reagent sequences are not shown.

Depletion of Abcg2 came out at: Tnf reporter robust z-score -1.05; fewer than 50 cells in well enough cells in well; inactive.
With knock-down of Ndufb9 the results were Tnf reporter robust z-score -0.16; fewer than 50 cells in well enough cells in well; inactive.
Kirrel3 gave fewer than 50 cells in well fewer than 50 cells per well; well left out of calls; inactive.
Or2a52 scored Tnf reporter robust z-score 0.52; fewer than 50 cells in well enough cells in well; inactive.
After knock-down of Hsd11b2 the results were Tnf reporter robust z-score 0.35; fewer than 50 cells in well enough cells in well; inactive.

Part of the list above in another layout:
| Target gene | Tnf reporter robust z-score | fewer than 50 cells in well | Outcome |
| --- | --- | --- | --- |
| Kirrel3 | – | fewer than 50 cells per well; well left out of calls | inactive |
| Or2a52 | 0.52 | enough cells in well | inactive |

Continued:
Knock-down of Fbxl2 gave: Tnf reporter robust z-score 0.46; fewer than 50 cells in well enough cells in well; inactive.
With knock-down of Med10, the screen gave Tnf reporter robust z-score -0.96; fewer than 50 cells in well enough cells in well; inactive.
After knock-down of Olfml1, the screen gave Tnf reporter robust z-score 2.52; fewer than 50 cells in well enough cells in well; inactive.
Zfp397 showed Tnf reporter robust z-score -1.06; fewer than 50 cells in well enough cells in well; inactive.
For Ppp4c, the values are Tnf reporter robust z-score 0.75; fewer than 50 cells in well enough cells in well; inactive.
Silencing of Satb2 resulted in: Tnf reporter robust z-score -0.33; fewer than 50 cells in well enough cells in well; inactive.
Depletion of Spats2 came out at: Tnf reporter robust z-score 0.81; fewer than 50 cells in well enough cells in well; inactive.
With knock-down of Or10z1, the screen gave Tnf reporter robust z-score -0.79; fewer than 50 cells in well enough cells in well; inactive.
With knock-down of Cpd the results were Tnf reporter robust z-score 0.2; fewer than 50 cells in well enough cells in well; inactive.
